Record: PubChem BioAssay AID1224830 (NIAID, 2016)
Assay: 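Host factors that control LPS-induced TNF expression in human macrophages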 (primary screen). System: human THP-1 monocytic leukaemia cells, TNF dual-luciferase reporter clone, PMA-differentiated to macrophage-like cells. Knock-down reagent: siRNA pool against human genes, 50 nM. Time to read-out: LPS for 4 h, given about 3 days after siRNA transfection. Challenge: bacterial LPS (TLR4 ligand), 10 ng/ml. Measured: 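TNF firefly reporter luminescence divided by renilla, normalised to the plate median, then turned into a robust z-score for each replicate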. Scale: TNF reporter robust z-score: higher = stronger TNF reporter response to LPS. Rule for the call: 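Each well counts as active if its z-score is over 2.8 or under -1.5; controls are left without a call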.
The whole screen tested about 18,000 reagents; shown is a random part of them. Of all reagents, about 2,900 (16%) are marked active. 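Calls are made per well; low scores hint the gene aids the LPS response, high scores that it dampens it.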 Unmarked entries are inactive. Repeated entries: four replicate wells of each siRNA pool. No sequences are given here.

gene | TNF reporter robust z-score
MRPL9 (mitochondrial ribosomal protein L9) | -0.28
MRPL9 (mitochondrial ribosomal protein L9) | -0.18
MRPL9 (mitochondrial ribosomal protein L9) | -0.94
MRPL9 (mitochondrial ribosomal protein L9) | -0.19
YTHDF1 (YTH N6-methyladenosine RNA binding protein F1) | 1.96
YTHDF1 (YTH N6-methyladenosine RNA binding protein F1) | 2.09
YTHDF1 (YTH N6-methyladenosine RNA binding protein F1) | 0.35
YTHDF1 (YTH N6-methyladenosine RNA binding protein F1) | 0.54
RGMA (repulsive guidance molecule BMP co-receptor a) | -0.69
RGMA (repulsive guidance molecule BMP co-receptor a) | -0.19
RGMA (repulsive guidance molecule BMP co-receptor a) | -0.46
RGMA (repulsive guidance molecule BMP co-receptor a) | -0.09
INTS15 (integrator complex subunit 15) | -0.34
INTS15 (integrator complex subunit 15) | -0.44
INTS15 (integrator complex subunit 15) | -0.71
INTS15 (integrator complex subunit 15) | 0.89
CWC22 (CWC22 spliceosome associated protein) | -1.53 (active)
CWC22 (CWC22 spliceosome associated protein) | 0.43
CWC22 (CWC22 spliceosome associated protein) | 0
CWC22 (CWC22 spliceosome associated protein) | -0.37
IGFBP2 (insulin like growth factor binding protein 2) | -1.48
IGFBP2 (insulin like growth factor binding protein 2) | 0.12
IGFBP2 (insulin like growth factor binding protein 2) | -0.16
IGFBP2 (insulin like growth factor binding protein 2) | 0.02
TMPRSS13 (transmembrane serine protease 13) | -0.58
TMPRSS13 (transmembrane serine protease 13) | -0.77
TMPRSS13 (transmembrane serine protease 13) | -1.02
TMPRSS13 (transmembrane serine protease 13) | -0.19
C16orf54 (chromosome 16 open reading frame 54) | 0.55
C16orf54 (chromosome 16 open reading frame 54) | 0.74
C16orf54 (chromosome 16 open reading frame 54) | 0.59
C16orf54 (chromosome 16 open reading frame 54) | 0.75
MMP1 (matrix metallopeptidase 1) | -0.27
MMP1 (matrix metallopeptidase 1) | 0.35
MMP1 (matrix metallopeptidase 1) | -1.17
MMP1 (matrix metallopeptidase 1) | -0.64
RHOBTB2 (Rho related BTB domain containing 2) | -1.34
RHOBTB2 (Rho related BTB domain containing 2) | 0.77
RHOBTB2 (Rho related BTB domain containing 2) | 0.34
RHOBTB2 (Rho related BTB domain containing 2) | 0.2
NRN1L (neuritin 1 like) | -1.2
NRN1L (neuritin 1 like) | -0.17
NRN1L (neuritin 1 like) | 0.31
NRN1L (neuritin 1 like) | 0.9
PAX4 (paired box 4) | 0.54
PAX4 (paired box 4) | 0.5
PAX4 (paired box 4) | 0.84
PAX4 (paired box 4) | 0.86
SURF4 (surfeit 4) | -0.29
SURF4 (surfeit 4) | 0.05
SURF4 (surfeit 4) | 0.18
SURF4 (surfeit 4) | 0.4
THEM4 (thioesterase superfamily member 4) | 0.46
THEM4 (thioesterase superfamily member 4) | 0.14
THEM4 (thioesterase superfamily member 4) | 0.39
THEM4 (thioesterase superfamily member 4) | -0.31
EPHX4 (epoxide hydrolase 4) | -0.33
EPHX4 (epoxide hydrolase 4) | 0.86
EPHX4 (epoxide hydrolase 4) | 0.2
EPHX4 (epoxide hydrolase 4) | 0.47
PRRT2 (proline rich transmembrane protein 2) | -1.1
PRRT2 (proline rich transmembrane protein 2) | -0.28
PRRT2 (proline rich transmembrane protein 2) | -1.54 (active)
PRRT2 (proline rich transmembrane protein 2) | -0.72
DHX29 (DExH-box helicase 29) | -1.12
DHX29 (DExH-box helicase 29) | 0.27
DHX29 (DExH-box helicase 29) | 0.06
DHX29 (DExH-box helicase 29) | 0.43
IKBKG | -1.16
IKBKG | -0.37
IKBKG | -0.68
IKBKG | -0.78
ACTB (actin beta) | 1.39
ACTB (actin beta) | -0.41
ACTB (actin beta) | -0.34
ACTB (actin beta) | 0.66
SPTAN1 (spectrin alpha, non-erythrocytic 1) | 0.69
SPTAN1 (spectrin alpha, non-erythrocytic 1) | 0.93
SPTAN1 (spectrin alpha, non-erythrocytic 1) | 0.54
SPTAN1 (spectrin alpha, non-erythrocytic 1) | 0.08
TTC33 (tetratricopeptide repeat domain 33) | 1.7
TTC33 (tetratricopeptide repeat domain 33) | 4.46 (active)
TTC33 (tetratricopeptide repeat domain 33) | 1.63
TTC33 (tetratricopeptide repeat domain 33) | 3.9 (active)
PRDM1 (PR/SET domain 1) | -0.81
PRDM1 (PR/SET domain 1) | 0.03
PRDM1 (PR/SET domain 1) | -0.07
PRDM1 (PR/SET domain 1) | -0.26
MLEC (malectin) | 0.21
MLEC (malectin) | -0.01
MLEC (malectin) | 0.99
MLEC (malectin) | 1.14
NPDC1 (neural proliferation, differentiation and control 1) | 0.77
NPDC1 (neural proliferation, differentiation and control 1) | -0.31
NPDC1 (neural proliferation, differentiation and control 1) | 0.2
NPDC1 (neural proliferation, differentiation and control 1) | -0.3
SMOC2 (SPARC related modular calcium binding 2) | -1.13
SMOC2 (SPARC related modular calcium binding 2) | 0.45
SMOC2 (SPARC related modular calcium binding 2) | -0.08
KLRC4 (killer cell lectin like receptor C4) | -0.68
KLRC4 (killer cell lectin like receptor C4) | 0.03
KLRC4 (killer cell lectin like receptor C4) | -0.34
KLRC4 (killer cell lectin like receptor C4) | 0.66
CEP112 (centrosomal protein 112) | 0.35
CEP112 (centrosomal protein 112) | 1.15
CEP112 (centrosomal protein 112) | -0.33
CEP112 (centrosomal protein 112) | -0.14
ACTG2 (actin gamma 2, smooth muscle) | 0.73
ACTG2 (actin gamma 2, smooth muscle) | 1.54
ACTG2 (actin gamma 2, smooth muscle) | 0.55
ACTG2 (actin gamma 2, smooth muscle) | -0.44

8 entries from above in another layout.
{"gene":"EPHX4 (epoxide hydrolase 4)","TNF reporter robust z-score":0.2}
{"gene":"EPHX4 (epoxide hydrolase 4)","TNF reporter robust z-score":0.47}
{"gene":"PRRT2 (proline rich transmembrane protein 2)","TNF reporter robust z-score":-1.1}
{"gene":"PRRT2 (proline rich transmembrane protein 2)","TNF reporter robust z-score":-0.28}
{"gene":"PRRT2 (proline rich transmembrane protein 2)","TNF reporter robust z-score":"-1.54 (active)"}
{"gene":"PRRT2 (proline rich transmembrane protein 2)","TNF reporter robust z-score":-0.72}
{"gene":"DHX29 (DExH-box helicase 29)","TNF reporter robust z-score":-1.12}
{"gene":"DHX29 (DExH-box helicase 29)","TNF reporter robust z-score":0.27}
